Results on 23 targets are retold here after the supplement of paper PMC10849652.

By UniProt entry, the sequences of proteins in these tests, tags left out. Where a name states a change or a piece, a line headed by the entry shows the natural chain unless it says otherwise.
UniProt Q9UPY8, whole entry, looked up: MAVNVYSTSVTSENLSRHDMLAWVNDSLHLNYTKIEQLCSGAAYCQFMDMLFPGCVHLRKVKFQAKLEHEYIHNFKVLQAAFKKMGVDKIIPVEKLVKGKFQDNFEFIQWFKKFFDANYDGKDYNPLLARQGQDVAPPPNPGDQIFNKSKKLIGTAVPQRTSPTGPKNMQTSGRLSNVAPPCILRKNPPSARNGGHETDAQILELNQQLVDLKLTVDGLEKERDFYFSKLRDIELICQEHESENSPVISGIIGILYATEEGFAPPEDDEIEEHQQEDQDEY
UniProt Q9NQG1: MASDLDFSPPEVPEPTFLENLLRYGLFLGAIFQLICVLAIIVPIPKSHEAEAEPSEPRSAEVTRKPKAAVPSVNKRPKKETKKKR
UniProt Q5TCQ9: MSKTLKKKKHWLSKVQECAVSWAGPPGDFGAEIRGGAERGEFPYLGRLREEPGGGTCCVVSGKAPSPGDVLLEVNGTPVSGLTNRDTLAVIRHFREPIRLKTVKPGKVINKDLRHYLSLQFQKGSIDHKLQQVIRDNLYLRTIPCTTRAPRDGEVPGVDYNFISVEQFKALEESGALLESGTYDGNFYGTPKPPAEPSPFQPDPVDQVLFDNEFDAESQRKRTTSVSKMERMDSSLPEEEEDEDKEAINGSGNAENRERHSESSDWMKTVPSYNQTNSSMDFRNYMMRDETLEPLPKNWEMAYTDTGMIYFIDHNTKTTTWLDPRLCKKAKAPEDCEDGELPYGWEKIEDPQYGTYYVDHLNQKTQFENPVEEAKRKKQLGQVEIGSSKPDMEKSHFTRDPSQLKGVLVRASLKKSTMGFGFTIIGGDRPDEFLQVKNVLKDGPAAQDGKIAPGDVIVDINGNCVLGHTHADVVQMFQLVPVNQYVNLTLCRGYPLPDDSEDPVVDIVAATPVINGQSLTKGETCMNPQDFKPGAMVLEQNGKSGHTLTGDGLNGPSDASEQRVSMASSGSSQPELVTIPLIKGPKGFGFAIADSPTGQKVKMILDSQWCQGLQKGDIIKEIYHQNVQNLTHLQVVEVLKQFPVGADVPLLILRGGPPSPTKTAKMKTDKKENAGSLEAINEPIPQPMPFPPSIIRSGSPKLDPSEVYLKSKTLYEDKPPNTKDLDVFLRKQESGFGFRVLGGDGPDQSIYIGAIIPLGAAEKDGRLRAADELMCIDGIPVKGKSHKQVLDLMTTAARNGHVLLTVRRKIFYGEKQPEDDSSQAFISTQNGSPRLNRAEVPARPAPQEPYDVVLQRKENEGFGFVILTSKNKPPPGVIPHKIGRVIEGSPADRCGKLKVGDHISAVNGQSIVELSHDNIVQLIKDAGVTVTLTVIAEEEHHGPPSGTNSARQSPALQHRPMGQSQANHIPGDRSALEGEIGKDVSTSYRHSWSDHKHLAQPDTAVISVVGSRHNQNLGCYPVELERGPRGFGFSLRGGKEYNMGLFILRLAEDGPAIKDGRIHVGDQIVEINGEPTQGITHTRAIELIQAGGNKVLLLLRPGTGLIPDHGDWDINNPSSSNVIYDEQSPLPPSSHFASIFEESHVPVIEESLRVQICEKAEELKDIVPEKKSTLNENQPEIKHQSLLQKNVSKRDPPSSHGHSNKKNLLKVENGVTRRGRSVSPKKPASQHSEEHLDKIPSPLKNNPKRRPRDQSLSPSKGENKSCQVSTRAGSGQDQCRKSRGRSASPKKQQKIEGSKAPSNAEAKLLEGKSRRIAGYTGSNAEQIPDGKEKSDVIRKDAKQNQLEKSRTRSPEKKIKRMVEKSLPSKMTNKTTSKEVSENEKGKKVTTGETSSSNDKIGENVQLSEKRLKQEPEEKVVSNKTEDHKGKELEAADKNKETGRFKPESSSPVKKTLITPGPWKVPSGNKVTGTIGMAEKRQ
UniProt P27816: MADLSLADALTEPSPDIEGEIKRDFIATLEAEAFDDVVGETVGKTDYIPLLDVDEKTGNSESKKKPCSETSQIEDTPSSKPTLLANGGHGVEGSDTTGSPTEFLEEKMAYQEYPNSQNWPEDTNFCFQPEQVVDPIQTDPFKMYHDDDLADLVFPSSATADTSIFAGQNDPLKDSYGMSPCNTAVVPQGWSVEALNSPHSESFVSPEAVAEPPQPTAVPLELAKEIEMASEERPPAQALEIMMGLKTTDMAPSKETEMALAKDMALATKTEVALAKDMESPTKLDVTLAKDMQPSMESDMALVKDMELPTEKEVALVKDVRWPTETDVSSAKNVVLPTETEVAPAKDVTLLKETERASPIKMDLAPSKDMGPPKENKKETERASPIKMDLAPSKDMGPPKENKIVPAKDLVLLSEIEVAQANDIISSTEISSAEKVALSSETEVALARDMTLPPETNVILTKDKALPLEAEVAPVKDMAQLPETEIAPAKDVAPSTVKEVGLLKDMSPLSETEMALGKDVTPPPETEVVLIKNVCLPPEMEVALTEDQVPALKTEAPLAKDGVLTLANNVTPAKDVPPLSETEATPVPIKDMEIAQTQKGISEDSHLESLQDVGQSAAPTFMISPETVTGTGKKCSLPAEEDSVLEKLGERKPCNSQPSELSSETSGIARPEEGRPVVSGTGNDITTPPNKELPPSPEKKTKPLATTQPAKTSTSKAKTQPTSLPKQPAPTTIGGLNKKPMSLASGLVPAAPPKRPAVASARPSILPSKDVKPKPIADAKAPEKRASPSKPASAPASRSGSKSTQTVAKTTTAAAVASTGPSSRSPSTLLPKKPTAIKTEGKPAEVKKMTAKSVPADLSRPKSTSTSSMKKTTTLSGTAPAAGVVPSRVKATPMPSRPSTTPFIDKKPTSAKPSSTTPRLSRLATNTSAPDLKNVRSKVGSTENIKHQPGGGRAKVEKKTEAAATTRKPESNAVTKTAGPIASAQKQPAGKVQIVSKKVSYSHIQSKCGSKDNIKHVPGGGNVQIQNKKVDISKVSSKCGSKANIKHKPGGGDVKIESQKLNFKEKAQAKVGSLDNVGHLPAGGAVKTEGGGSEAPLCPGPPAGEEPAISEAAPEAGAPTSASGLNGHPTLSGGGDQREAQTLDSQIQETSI
UniProt Q14244: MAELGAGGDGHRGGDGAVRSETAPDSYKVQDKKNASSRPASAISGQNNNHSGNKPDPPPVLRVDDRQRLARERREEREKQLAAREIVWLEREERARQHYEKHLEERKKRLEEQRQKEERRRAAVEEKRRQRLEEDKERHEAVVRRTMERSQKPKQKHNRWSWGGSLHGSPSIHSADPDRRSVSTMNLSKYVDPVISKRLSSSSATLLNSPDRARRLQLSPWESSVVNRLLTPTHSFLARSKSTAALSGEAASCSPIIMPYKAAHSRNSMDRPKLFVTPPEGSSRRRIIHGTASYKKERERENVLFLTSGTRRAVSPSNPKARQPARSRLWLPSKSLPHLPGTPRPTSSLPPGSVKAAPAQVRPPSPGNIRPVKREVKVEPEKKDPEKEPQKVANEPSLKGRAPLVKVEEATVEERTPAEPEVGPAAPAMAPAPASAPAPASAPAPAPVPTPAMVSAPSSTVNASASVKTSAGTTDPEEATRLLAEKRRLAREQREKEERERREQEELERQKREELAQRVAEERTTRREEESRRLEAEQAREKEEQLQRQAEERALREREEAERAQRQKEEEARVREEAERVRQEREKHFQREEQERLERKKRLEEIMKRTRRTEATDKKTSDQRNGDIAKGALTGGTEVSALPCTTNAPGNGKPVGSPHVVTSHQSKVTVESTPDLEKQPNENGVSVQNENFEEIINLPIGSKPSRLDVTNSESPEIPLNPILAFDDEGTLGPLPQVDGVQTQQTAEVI
UniProt Q9Y2E5: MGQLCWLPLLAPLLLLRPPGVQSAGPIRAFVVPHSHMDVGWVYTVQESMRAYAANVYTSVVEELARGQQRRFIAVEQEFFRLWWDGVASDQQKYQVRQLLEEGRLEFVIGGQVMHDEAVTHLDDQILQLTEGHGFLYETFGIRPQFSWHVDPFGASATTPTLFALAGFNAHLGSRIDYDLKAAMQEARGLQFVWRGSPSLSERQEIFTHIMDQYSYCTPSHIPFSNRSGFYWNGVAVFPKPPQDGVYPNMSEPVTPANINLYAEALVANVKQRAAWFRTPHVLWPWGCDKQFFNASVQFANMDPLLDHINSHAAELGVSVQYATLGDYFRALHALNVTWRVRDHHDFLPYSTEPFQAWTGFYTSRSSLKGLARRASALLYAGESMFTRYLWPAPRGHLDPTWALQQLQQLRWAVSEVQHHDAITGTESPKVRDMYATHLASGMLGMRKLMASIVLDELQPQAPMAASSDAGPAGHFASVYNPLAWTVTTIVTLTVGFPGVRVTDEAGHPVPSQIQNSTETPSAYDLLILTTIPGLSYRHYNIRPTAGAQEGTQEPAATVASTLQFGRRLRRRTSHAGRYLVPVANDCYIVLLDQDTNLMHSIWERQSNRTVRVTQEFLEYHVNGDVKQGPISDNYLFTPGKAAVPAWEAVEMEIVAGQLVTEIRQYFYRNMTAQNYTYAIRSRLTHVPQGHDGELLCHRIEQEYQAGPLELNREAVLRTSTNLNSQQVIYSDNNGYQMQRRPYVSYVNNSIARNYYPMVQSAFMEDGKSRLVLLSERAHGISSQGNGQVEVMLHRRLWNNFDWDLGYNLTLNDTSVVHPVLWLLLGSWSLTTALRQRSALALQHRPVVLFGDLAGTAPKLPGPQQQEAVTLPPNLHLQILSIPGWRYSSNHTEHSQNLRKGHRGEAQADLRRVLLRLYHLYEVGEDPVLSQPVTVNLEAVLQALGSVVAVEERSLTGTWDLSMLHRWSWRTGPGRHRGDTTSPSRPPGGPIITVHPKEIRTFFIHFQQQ
UniProt O60337: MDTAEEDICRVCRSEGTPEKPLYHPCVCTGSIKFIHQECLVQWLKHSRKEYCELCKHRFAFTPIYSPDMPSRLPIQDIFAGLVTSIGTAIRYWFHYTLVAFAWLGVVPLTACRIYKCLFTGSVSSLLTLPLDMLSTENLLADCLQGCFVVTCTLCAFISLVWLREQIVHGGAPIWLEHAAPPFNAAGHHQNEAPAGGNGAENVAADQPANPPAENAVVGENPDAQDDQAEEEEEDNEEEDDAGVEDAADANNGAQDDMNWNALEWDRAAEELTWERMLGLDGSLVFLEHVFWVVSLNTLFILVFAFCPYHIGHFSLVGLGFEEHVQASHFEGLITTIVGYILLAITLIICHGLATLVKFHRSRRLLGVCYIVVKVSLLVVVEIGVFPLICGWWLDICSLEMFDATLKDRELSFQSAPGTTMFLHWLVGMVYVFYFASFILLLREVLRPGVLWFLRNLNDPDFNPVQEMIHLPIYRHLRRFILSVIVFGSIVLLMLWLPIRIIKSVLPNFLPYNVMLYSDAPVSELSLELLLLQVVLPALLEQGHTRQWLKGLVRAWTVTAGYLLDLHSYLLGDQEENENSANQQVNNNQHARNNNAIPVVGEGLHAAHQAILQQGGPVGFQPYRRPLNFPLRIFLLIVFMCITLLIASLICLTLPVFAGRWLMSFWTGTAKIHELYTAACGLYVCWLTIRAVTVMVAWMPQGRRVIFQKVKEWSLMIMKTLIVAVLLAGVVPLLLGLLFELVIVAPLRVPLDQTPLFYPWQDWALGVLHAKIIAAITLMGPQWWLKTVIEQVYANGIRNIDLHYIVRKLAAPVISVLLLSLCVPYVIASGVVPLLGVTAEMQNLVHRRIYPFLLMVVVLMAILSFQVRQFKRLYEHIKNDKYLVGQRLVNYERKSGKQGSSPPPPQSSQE
UniProt Q8IWC1: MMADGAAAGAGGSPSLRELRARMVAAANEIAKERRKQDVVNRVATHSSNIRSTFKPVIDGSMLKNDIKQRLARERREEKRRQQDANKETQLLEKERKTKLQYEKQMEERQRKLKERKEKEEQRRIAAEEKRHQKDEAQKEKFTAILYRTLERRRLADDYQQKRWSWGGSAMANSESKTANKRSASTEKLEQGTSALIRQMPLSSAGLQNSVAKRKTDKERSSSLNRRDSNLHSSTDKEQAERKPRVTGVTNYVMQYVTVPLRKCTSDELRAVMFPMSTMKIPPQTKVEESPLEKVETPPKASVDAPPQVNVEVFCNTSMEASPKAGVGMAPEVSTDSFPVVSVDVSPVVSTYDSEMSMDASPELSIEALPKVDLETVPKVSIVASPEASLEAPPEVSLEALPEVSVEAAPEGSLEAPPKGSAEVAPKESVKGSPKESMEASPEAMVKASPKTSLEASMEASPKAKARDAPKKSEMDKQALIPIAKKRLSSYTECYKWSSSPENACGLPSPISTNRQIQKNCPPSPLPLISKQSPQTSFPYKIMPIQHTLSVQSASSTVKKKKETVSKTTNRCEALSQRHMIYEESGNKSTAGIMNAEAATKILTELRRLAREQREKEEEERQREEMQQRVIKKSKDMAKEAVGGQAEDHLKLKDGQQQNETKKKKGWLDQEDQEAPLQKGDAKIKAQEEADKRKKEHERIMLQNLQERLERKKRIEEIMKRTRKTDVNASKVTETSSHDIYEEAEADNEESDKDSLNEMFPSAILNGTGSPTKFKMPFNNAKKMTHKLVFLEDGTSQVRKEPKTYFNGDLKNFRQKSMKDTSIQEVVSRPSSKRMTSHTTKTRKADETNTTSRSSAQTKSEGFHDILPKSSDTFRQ

The other results are listed elsewhere or left out.

Compound in this experiment: CC(=O)c1cnc2ccc(-c3cc(Cl)c(O)c(Cl)c3)nc2c1N[C@H]1CC[C@H](CN(C)C)CC1
Nature of the experiment: log2 fold change, soluble protein after heating vs DMSO (PISA); higher = thermal stabilisation; K562 lysate, 10 uM; active = over 0.2 and 3.5 SD of the protein, either way, in both replicates (recomputed). The gist of the method: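 Values give the log-two fold change in thermal stability against solvent controls, from duplicates. Crude K562 extract at 1 mg/mL protein, made by dounce homogenisation in PBS pH 7.4 with 1 mM MgCl2, was treated with 10 μM compound for 30 min. After 3 min heating across 48°C-58°C, aliquots were pooled, adjusted to 0.5% NP-40 at 4°C and centrifuged at 21,000xg for 90 min. The supernatant was measured by TMTpro 16plex LC-MS/MS with channel sums equalised.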
On to LUC7L3 (UniProt O95232), for which the log2 fold change was inactive: -0.023.

Take MAP3K5 (UniProt Q99683): the log2 fold change was inactive: -0.007. The same measure for MANEA (UniProt Q5SRI9): inactive: 0.038.

Regarding MAPRE3 isoform 2 (UniProt Q9UPY8), the log2 fold change is inactive: 0.104. To LTBP4 (UniProt Q8N2S1) belongs inactive: -0.077; to MANBAL (UniProt Q9NQG1), inactive: 0.016; to MAP4K2 (UniProt Q12851), inactive: 0.337. With MAST2 (UniProt Q6P0Q8), the log2 fold change was inactive: 0.054. Take MAGI3 isoform 1 (UniProt Q5TCQ9): the log2 fold change is inactive: -0.015. To MAP4 isoform 5 (UniProt P27816) belongs inactive: 0.027; to MAP4K5 (UniProt Q9Y4K4), inactive: 0.108; to MAP7 (UniProt Q14244), inactive: 0.026. To MAN2B2 (UniProt Q9Y2E5) belongs inactive: -0.026; to MAP4 (UniProt E7EVA0), inactive: -0.009; to MARCHF6 (UniProt O60337), inactive: -0.021. To MACF1 (UniProt E9PLY5) belongs inactive: 0.188. On to MAP4K4 isoform 6 (UniProt O95819), for which the log2 fold change was inactive: 0.001. For the target LZTS2 (UniProt Q9BRK4), the log2 fold change was inactive: -0.016. To LTBR (UniProt P36941) belongs inactive: -0.042; to MAP7D3 (UniProt Q8IWC1), inactive: 0.005; to MAFG (UniProt O15525), inactive: -0.186. For MAPK11 (UniProt Q15759), the log2 fold change is inactive: 0.221.

For MAGED1 isoform 2 (UniProt Q9Y5V3), the log2 fold change is inactive: -0.005.
